From the supplement of paper PMC11006884
The entries are a selection whose mix differs from that of the whole data set.

Protein sequences, listed by entry. Tags and fused reporters are not part of them. Lines headed by an entry give the natural chain unless they say otherwise; changes in a name come on top.
UniProt Q13200: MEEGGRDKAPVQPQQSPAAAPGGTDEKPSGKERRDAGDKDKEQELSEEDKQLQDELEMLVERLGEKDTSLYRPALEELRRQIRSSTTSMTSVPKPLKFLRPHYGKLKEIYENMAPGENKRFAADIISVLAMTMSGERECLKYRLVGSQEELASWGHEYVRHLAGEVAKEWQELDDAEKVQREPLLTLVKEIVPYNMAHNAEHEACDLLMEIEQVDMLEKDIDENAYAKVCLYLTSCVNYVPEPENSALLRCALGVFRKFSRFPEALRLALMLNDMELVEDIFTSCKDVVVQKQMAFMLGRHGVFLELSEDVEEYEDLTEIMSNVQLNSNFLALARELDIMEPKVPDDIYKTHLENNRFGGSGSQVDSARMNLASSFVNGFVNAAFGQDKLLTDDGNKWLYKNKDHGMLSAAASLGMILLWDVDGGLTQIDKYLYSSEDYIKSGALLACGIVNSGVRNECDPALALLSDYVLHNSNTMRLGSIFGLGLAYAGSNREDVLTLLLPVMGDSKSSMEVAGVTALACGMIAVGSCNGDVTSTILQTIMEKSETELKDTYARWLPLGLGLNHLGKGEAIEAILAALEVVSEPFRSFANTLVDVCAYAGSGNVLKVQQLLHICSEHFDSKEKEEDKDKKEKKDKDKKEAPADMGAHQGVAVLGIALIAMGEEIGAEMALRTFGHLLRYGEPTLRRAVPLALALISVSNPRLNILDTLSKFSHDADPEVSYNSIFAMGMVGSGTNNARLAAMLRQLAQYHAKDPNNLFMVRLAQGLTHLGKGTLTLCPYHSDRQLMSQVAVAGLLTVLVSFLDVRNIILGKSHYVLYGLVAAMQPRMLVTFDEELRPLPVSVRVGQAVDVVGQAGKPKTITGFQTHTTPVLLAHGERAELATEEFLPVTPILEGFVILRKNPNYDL
UniProt Q08J23, whole entry, looked up: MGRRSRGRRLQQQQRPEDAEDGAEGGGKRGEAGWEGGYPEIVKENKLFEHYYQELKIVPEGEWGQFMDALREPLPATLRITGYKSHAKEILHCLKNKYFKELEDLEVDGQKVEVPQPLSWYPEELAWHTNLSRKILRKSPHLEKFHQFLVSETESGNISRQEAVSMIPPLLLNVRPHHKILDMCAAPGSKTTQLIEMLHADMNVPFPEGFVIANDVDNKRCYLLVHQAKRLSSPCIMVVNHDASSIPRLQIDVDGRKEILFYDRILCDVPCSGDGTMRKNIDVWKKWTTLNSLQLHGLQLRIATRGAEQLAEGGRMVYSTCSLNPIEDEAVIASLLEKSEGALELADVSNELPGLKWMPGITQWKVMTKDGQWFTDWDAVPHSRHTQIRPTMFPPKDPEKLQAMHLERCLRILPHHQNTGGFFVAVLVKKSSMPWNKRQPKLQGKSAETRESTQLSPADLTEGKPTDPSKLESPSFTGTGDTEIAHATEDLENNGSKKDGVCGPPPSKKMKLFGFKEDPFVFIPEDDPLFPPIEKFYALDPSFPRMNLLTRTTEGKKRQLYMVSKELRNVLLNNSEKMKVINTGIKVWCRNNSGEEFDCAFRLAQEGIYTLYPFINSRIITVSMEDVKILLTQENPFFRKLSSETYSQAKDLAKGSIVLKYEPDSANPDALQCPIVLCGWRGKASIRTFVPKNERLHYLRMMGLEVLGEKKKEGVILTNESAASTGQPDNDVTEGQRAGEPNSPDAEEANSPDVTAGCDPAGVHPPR
UniProt Q03164, whole entry, looked up: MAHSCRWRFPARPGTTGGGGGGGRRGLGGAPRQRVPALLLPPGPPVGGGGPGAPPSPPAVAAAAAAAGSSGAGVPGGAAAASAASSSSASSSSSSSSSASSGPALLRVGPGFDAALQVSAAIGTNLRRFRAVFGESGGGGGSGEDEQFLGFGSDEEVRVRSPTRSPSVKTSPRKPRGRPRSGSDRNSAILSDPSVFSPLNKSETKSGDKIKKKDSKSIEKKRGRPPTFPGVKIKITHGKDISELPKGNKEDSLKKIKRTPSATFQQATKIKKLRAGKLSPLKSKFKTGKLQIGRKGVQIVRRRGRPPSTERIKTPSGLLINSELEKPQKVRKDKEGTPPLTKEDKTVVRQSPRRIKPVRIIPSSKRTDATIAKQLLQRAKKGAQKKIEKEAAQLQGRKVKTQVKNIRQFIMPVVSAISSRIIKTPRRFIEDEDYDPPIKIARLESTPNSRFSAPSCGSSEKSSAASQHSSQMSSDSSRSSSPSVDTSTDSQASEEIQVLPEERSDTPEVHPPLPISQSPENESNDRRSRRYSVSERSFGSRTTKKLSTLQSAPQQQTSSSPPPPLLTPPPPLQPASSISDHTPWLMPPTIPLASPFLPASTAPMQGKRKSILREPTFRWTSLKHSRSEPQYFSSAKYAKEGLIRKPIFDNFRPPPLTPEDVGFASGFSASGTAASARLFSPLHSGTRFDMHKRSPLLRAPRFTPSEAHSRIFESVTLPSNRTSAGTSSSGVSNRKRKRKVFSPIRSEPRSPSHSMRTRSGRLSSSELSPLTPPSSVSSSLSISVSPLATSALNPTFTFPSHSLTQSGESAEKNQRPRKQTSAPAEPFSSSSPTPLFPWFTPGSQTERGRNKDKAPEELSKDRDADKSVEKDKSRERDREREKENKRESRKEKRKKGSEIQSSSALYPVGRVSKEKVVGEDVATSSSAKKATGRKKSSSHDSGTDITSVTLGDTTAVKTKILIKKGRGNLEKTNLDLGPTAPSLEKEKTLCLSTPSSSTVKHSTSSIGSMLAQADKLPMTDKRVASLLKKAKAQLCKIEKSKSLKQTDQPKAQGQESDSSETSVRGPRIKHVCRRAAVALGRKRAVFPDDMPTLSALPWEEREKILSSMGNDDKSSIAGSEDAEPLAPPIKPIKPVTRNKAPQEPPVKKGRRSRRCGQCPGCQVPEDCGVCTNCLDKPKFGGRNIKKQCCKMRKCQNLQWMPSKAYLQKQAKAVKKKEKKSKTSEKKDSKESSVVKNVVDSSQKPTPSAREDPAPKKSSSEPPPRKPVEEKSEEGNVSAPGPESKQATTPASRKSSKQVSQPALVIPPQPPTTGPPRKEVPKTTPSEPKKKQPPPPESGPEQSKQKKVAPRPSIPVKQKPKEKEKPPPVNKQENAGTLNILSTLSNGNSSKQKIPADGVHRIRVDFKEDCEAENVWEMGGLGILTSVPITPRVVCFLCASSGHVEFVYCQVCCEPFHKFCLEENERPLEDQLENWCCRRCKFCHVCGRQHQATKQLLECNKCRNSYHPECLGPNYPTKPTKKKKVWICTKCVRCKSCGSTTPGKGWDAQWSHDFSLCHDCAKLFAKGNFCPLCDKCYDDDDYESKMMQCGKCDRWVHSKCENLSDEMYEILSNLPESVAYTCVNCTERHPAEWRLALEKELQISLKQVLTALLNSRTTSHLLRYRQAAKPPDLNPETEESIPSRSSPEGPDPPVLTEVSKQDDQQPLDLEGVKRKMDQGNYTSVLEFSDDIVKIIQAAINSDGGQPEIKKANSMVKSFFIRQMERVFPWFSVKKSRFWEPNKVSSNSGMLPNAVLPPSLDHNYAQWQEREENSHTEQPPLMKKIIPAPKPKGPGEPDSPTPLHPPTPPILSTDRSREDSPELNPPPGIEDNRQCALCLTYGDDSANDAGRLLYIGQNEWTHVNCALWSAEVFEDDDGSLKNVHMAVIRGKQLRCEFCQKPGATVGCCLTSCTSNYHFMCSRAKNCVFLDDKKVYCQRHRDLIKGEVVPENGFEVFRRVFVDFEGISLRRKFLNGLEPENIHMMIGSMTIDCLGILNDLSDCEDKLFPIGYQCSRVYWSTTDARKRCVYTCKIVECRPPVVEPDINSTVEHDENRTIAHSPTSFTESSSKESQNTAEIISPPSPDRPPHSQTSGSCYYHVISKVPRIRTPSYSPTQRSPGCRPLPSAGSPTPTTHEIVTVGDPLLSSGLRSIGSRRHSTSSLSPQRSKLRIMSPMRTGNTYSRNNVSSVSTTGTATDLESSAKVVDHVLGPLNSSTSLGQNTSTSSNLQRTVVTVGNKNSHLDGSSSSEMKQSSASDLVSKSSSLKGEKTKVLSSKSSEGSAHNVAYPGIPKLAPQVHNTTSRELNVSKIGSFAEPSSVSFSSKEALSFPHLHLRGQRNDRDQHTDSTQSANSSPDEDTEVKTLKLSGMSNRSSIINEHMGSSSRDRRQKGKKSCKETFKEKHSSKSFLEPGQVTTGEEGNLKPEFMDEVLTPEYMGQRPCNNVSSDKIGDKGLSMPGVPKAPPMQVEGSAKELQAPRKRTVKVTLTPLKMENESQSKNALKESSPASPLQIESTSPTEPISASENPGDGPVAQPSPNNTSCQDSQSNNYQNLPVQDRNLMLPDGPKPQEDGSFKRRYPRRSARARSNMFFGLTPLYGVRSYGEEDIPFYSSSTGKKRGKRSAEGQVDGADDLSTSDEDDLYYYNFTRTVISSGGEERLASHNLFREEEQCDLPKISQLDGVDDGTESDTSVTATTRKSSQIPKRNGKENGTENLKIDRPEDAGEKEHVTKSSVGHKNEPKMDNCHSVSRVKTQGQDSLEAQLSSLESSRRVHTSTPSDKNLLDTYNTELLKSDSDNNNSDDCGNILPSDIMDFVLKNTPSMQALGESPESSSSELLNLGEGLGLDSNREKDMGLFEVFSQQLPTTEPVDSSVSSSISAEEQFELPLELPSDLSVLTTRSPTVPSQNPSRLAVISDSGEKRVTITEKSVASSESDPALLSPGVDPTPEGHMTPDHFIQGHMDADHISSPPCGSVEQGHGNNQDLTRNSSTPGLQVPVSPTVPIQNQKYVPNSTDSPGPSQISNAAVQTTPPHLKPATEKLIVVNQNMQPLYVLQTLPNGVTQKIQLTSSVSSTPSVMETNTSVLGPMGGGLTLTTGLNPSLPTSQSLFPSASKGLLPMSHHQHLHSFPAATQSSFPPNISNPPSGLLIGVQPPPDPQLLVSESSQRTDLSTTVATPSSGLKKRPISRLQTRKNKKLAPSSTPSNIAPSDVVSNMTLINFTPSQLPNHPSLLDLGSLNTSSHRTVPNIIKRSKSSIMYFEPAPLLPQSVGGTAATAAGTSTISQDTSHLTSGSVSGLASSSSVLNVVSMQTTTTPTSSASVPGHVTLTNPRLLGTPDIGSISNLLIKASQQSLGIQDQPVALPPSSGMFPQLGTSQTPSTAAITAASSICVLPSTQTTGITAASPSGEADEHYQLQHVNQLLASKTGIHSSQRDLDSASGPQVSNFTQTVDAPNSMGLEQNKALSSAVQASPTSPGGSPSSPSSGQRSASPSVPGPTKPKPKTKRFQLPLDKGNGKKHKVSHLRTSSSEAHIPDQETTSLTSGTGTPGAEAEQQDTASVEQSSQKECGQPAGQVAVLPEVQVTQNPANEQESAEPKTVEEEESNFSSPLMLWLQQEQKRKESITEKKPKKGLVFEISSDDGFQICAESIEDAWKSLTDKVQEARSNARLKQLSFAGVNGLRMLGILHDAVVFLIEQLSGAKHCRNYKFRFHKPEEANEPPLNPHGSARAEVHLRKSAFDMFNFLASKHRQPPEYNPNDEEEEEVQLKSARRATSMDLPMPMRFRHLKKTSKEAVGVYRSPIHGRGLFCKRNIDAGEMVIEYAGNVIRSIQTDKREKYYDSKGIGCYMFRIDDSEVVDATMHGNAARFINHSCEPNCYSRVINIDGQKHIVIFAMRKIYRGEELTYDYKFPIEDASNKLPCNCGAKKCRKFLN
UniProt Q12849: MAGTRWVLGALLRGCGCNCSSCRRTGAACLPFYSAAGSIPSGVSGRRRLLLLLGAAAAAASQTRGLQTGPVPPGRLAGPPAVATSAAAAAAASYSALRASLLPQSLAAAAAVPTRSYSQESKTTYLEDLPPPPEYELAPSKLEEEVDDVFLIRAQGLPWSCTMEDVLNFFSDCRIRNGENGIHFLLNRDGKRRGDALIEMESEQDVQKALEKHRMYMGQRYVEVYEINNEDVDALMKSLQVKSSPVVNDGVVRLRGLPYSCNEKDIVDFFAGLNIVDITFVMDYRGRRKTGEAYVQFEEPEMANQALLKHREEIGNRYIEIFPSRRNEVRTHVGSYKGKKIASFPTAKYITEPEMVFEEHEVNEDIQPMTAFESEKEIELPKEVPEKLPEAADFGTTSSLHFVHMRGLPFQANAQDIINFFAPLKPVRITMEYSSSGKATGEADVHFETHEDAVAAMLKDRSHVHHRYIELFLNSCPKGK
UniProt Q04760: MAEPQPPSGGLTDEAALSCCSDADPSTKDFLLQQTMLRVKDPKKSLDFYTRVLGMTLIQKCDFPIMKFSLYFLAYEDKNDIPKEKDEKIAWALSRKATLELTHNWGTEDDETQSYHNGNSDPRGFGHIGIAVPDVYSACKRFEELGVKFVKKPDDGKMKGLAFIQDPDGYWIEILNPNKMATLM

What follows are targets tested with COC(=O)C#Cc1ccccc1 [methyl 3-phenylpropiolate] (assay: log2 ratio of iodoacetamide-alkyne labeling of the cysteine site, DMSO over compound (competition); higher = stronger covalent engagement of the cysteine by the compound, active = 1 or more). Conditions: 500 µM; treatment time 1 h; system: HEK293T cell lysate.
Procedure, shortened: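 Three replicates, each with duplicate channels, were prepared from HEK293T lysate (2 mg/mL) treated with vehicle or electrophile at 500 µM for 1 h at ambient temperature. Iodoacetamide alkyne was then applied for 1 h, and samples were clicked to sCIP-TMT reagents, pooled, trypsin-digested overnight at 37 °C, enriched on streptavidin, acid-eluted and analysed on Orbitrap Eclipse LC-MS/MS with FAIMS, with FragPipe quantification. The log2 competition ratio per cysteine is the mean control-channel divided by the mean compound-channel reporter intensity. Cysteines quantified in only one replicate were left out.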

Target	log2 ratio of iodoacetamide-alkyne labeling
CHAF1A C79 (UniProt Q13111)	inactive: 0.198
AKAP12 C470 (UniProt Q02952)	inactive: 0.121
CSTF1 C178 (UniProt Q05048)	inactive: 0.0622
PSMD2 C251 (UniProt Q13200)	inactive: 0.0201
NSUN2 C758 (UniProt Q08J23)	inactive: 0.00491
GTF3C1 C2089 (UniProt Q12789)	inactive: 0.156
UniProt Q03164_C990	inactive: 0.335
PTPN11 C259 (UniProt Q06124)	inactive: 0.144
NSUN2 C678 (UniProt Q08J23)	inactive: 0.247
AP1B1 C129 (UniProt Q10567)	inactive: 0.414
PMPCA C466 (UniProt Q10713)	inactive: 0.00592
GRSF1 C476 (UniProt Q12849)	inactive: 0.306
TLE3 C528 (UniProt Q04726)	active: 1.34
GABPB1 C331 (UniProt Q06547)	inactive: 0.198
GLO1 C139 (UniProt Q04760)	inactive: -0.211

Some of the entries so far, with bars between the fields.
Target | log2 ratio of iodoacetamide-alkyne labeling
PTPN11 C259 (UniProt Q06124) | inactive: 0.144
NSUN2 C678 (UniProt Q08J23) | inactive: 0.247
